Source: the supplement of paper PMC6078165

Test system: BT20
Experiment: relative JC-1 red fluorescence (viability) vs pre-drug, coculture with fibroblast (fraction); higher = more viable cancer cells
Experimental: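 JC-1 labelled TNBC cells cocultured 1:1 (1,500 cells each) with CellTrace Violet stained primary or stromal fibroblasts in 384-well plates in FluoroBrite medium, treated with one of 42 anticancer drugs at 0.1, 1, 10 or 100 uM. JC-1 red fluorescence (mitochondrial integrity in cancer cells only) was read by plate reader every 8 h for 72 h. Values are normalised to each well's pre-drug value. The stock of one drug was tenfold lower, so its dose labels may be too high.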

CC[C@]1(O)C[C@H]2CN(CCc3c([nH]c4ccccc34)[C@@](C(=O)OC)(c3cc4c(cc3OC)N(C=O)[C@H]3[C@@](O)(C(=O)OC)[C@H](OC(C)=O)[C@]5(CC)C=CCN6CC[C@]43[C@@H]65)C2)C1 [Vincristine]
relative JC-1 red fluorescence
Settings | 8 h | 16 h | 24 h | 32 h | 40 h | 48 h | 56 h | 64 h | 72 h
10 µM, coculture fibroblast: C12385 | 0.891 | 0.871 | 0.855 | 0.809 | 0.759 | 0.729 | 0.706 | 0.685 | 0.668
10 µM, coculture fibroblast: H6013 | 0.9374 | 0.9208 | 0.905 | 0.861 | 0.836 | 0.829 | 0.843 | 0.832 | 0.831
10 µM, coculture fibroblast: H6019 | 0.8705 | 0.83 | 0.845 | 0.805 | 0.78 | 0.776 | 0.7604 | 0.749 | 0.7484
10 µM, coculture fibroblast: H6076 | 0.914 | 0.937 | 0.891 | 0.885 | 0.863 | 0.855 | 0.859 | 0.869 | 0.868
10 µM, coculture fibroblast: H6231 | 0.868 | 0.962 | 0.896 | 0.827 | 0.768 | 0.704 | 0.654 | 0.622 | 0.579
10 µM, coculture fibroblast: HADF | 0.914 | 0.944 | 0.84 | 0.821 | 0.762 | 0.709 | 0.688 | 0.66 | 0.618
10 µM, coculture fibroblast: HCFa | 0.95477 | 0.942 | 0.917 | 0.868 | 0.828 | 0.799 | 0.764 | 0.734 | 0.708
10 µM, coculture fibroblast: HCPF | 0.9335 | 0.935 | 0.904 | 0.873 | 0.849 | 0.802 | 0.7609 | 0.765 | 0.722
10 µM, coculture fibroblast: HHSteC | 0.9377 | 0.921 | 0.865 | 0.783 | 0.717 | 0.659 | 0.614 | 0.584 | 0.561
10 µM, coculture fibroblast: HMF | 0.857 | 0.908 | 0.82 | 0.7576 | 0.72 | 0.6797 | 0.658 | 0.628 | 0.597
10 µM, coculture fibroblast: HPFa | 0.948 | 0.8921 | 0.906 | 0.8308 | 0.8345 | 0.802 | 0.78 | 0.765 | 0.735
10 µM, coculture fibroblast: HUF | 0.902 | 0.833 | 0.802 | 0.729 | 0.673 | 0.628 | 0.605 | 0.585 | 0.572
10 µM, coculture fibroblast: Hs5 | 0.959 | 0.944 | 0.8938 | 0.854 | 0.821 | 0.797 | 0.784 | 0.763 | 0.774
10 µM, coculture fibroblast: Hs27A | 0.872 | 0.819 | 0.88 | 0.866 | 0.965 | 0.933 | 0.916 | 0.889 | 0.851
10 µM, coculture fibroblast: Hs343T | 0.859 | 0.951 | 0.867 | 0.8 | 0.734 | 0.669 | 0.612 | 0.592 | 0.561
10 µM, coculture fibroblast: WS1 | 0.854 | 0.801 | 0.755 | 0.693 | 0.638 | 0.607 | 0.566 | 0.524 | 0.494
100 µM, coculture fibroblast: C12385 | 0.8707 | 0.844 | 0.796 | 0.751 | 0.718 | 0.702 | 0.691 | 0.676 | 0.664
100 µM, coculture fibroblast: H6013 | 0.985 | 0.949 | 0.951 | 0.943 | 0.924 | 0.897 | 0.8609 | 0.832 | 0.862
100 µM, coculture fibroblast: H6019 | 0.877 | 0.845 | 0.821 | 0.774 | 0.76 | 0.749 | 0.726 | 0.715 | 0.715
100 µM, coculture fibroblast: H6076 | 0.897 | 0.917 | 0.9 | 0.864 | 0.831 | 0.81 | 0.781 | 0.779 | 0.756
100 µM, coculture fibroblast: H6231 | 0.927 | 0.982 | 0.9209 | 0.8806 | 0.8434 | 0.8073 | 0.782 | 0.762 | 0.738
100 µM, coculture fibroblast: HADF | 0.762 | 0.985 | 0.916 | 0.915 | 0.906 | 0.883 | 0.86 | 0.846 | 0.8132
100 µM, coculture fibroblast: HCFa | 0.98 | 0.962 | 0.859 | 0.95 | 0.943 | 0.797 | 0.796 | 0.799 | 0.81
100 µM, coculture fibroblast: HCPF | 0.91 | 0.989 | 0.9096 | 0.87877 | 0.8307 | 0.788 | 0.742 | 0.7271 | 0.687
100 µM, coculture fibroblast: HHSteC | 0.946 | 0.925 | 0.943 | 0.904 | 0.853 | 0.812 | 0.822 | 0.733 | 0.868
100 µM, coculture fibroblast: HMF | 0.831 | 0.887 | 0.888 | 0.8316 | 0.795 | 0.75 | 0.722 | 0.709 | 0.681
100 µM, coculture fibroblast: HPFa | 0.9506 | 0.911 | 0.927 | 0.8687 | 0.87262 | 0.854 | 0.84 | 0.826 | 0.801
100 µM, coculture fibroblast: HUF | 0.92689 | 0.904 | 0.916 | 0.87 | 0.858 | 0.842 | 0.849 | 0.852 | 0.85
100 µM, coculture fibroblast: Hs5 | 0.826 | 0.979 | 0.917 | 0.878 | 0.838 | 0.803 | 0.779 | 0.753 | 0.733
100 µM, coculture fibroblast: Hs27A | 0.826 | 0.838 | 0.967 | 0.985 | 0.961 | 0.956 | 0.962 | 0.948 | 0.908
100 µM, coculture fibroblast: Hs343T | 0.779 | 0.972 | 0.919 | 0.883 | 0.856 | 0.836 | 0.805 | 0.79 | 0.7696
100 µM, coculture fibroblast: WS1 | 0.874 | 0.855 | 0.829 | 0.79 | 0.759 | 0.75 | 0.736 | 0.722 | 0.708

Values are relative to the signal before dosing, not to a vehicle control; the signal also falls without drug.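 Fibroblast labels name human fibroblasts: mostly primary ones from tissues such as uterus (C12385, HUF), lung (H6013), bone (Hs27A), adrenal (HADF) and skin (WS1), plus mammary HMF and breast cancer-associated Hs343T. The cancer cells are basal-like or mesenchymal-like triple-negative breast cancer lines. The paper calls a changed response a hit when it shifts by more than 3x the replicate standard deviation. The tissue of the other fibroblasts is not given here.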
